For two molecules, binding results are on record in doi:10.1101/2024.08.01.24311333.

Chains of the proteins cited; added tags and fusions are not shown. Residues count along the entry.
UniProt P24394, residues 26-825: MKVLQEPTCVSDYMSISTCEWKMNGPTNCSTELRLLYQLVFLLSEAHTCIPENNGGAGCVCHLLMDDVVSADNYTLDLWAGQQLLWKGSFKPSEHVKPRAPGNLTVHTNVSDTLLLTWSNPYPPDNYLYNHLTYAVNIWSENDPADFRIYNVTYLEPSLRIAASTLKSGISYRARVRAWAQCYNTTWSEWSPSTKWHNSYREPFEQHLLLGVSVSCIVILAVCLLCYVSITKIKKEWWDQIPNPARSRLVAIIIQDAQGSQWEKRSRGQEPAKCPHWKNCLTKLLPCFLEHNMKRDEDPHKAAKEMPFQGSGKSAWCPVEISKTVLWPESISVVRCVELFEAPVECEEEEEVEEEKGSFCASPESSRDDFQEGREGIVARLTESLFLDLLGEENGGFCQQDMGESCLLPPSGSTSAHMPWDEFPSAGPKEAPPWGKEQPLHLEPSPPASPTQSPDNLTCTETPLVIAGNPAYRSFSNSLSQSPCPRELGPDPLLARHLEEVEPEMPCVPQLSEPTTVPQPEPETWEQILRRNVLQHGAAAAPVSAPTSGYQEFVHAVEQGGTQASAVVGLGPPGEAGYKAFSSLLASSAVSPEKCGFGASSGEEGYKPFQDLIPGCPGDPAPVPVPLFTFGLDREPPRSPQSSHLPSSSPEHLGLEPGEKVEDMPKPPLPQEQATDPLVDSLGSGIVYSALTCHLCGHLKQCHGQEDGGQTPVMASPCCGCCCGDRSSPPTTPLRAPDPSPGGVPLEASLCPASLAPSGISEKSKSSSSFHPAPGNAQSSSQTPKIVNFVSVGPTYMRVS
UniProt Q9UNE7: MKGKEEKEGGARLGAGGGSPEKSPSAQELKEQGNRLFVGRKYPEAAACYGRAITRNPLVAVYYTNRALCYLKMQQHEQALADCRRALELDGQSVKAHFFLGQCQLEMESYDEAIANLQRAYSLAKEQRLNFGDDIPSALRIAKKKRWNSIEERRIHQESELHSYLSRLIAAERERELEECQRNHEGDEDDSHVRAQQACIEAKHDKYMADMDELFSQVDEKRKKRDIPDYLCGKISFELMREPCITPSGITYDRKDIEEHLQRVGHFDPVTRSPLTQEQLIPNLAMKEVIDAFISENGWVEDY

Results are given in words; binding and its absence hold for the method and conditions named. Binding seen in cells or lysates may run through a third protein. Some binding calls cover weakened binding; strength is not graded here. For some of these results: Sequences can lack the tags named with a protein.

Holding throughout (assay): co-IP
Test [1] has as its target T1, Cadherin-26, FLAG-tagged, full-CDH26 (1-832) (human) (UniProt Q8IXH8).
T1 sequence: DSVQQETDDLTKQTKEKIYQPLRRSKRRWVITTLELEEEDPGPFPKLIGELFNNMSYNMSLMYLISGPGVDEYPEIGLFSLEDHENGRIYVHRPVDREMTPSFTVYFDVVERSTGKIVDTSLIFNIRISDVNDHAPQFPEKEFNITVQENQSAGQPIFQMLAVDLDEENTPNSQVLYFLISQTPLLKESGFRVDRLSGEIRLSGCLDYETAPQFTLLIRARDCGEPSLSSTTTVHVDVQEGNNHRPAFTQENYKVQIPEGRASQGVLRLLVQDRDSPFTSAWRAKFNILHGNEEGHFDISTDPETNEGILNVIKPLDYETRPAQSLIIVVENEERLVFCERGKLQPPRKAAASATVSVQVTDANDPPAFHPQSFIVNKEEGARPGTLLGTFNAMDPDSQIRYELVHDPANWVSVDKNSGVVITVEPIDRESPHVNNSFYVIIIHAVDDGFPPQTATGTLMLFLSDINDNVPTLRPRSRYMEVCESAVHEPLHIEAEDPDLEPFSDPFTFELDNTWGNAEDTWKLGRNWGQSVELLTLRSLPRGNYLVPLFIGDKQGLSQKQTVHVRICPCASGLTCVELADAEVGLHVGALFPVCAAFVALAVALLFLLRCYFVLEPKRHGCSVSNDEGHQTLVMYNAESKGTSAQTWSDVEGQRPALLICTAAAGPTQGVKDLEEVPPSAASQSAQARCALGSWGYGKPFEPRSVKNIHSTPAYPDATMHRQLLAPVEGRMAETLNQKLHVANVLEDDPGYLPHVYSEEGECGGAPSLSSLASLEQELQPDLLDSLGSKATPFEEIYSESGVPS

Test [2] addresses T2, del-CDH26, FLAG-tagged (deleting amino acids 716-724, 787-794 and 802-817) (human) (UniProt Q8IXH8).
T2 sequence: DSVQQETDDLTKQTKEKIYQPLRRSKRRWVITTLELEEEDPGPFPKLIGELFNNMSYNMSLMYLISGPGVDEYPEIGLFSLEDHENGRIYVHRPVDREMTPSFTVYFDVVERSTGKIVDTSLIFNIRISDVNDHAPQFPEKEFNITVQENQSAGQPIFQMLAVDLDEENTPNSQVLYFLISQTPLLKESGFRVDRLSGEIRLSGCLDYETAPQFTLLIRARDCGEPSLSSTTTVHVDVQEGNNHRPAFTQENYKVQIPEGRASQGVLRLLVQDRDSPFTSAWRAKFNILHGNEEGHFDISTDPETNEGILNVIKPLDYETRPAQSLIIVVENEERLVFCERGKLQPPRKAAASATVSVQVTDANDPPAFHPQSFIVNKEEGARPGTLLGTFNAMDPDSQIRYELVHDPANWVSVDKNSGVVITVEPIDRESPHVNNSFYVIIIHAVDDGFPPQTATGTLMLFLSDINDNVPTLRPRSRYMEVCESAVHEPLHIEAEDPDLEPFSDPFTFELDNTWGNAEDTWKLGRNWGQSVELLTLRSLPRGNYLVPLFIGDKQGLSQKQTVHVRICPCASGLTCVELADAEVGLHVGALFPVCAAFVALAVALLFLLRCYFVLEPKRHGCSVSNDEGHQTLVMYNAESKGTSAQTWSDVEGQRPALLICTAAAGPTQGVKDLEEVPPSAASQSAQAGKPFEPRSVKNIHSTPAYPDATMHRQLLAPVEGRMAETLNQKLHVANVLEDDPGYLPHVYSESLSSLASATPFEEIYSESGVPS

For test [3], the target named is Interleukin-4 receptor subunit alpha, GFP-tagged (UniProt P24394).
Test [4] concerns the target STIP1 homology and U-box-containing protein 1 (human (endogenous in HEK-293T)) (UniProt Q9UNE7).

In the case of “STIP1 homology and U-box-containing protein 1 (from UniProt Q9UNE7 1-303) (enzyme)”, the binding entry in test [1], in test [2] and in test [3] was “binds” in each case.

B1: Cadherin-26, FLAG-tagged, full-CDH26 (1-832) (protein, UniProt Q8IXH8 28-832)
chain: DSVQQETDDLTKQTKEKIYQPLRRSKRRWVITTLELEEEDPGPFPKLIGELFNNMSYNMSLMYLISGPGVDEYPEIGLFSLEDHENGRIYVHRPVDREMTPSFTVYFDVVERSTGKIVDTSLIFNIRISDVNDHAPQFPEKEFNITVQENQSAGQPIFQMLAVDLDEENTPNSQVLYFLISQTPLLKESGFRVDRLSGEIRLSGCLDYETAPQFTLLIRARDCGEPSLSSTTTVHVDVQEGNNHRPAFTQENYKVQIPEGRASQGVLRLLVQDRDSPFTSAWRAKFNILHGNEEGHFDISTDPETNEGILNVIKPLDYETRPAQSLIIVVENEERLVFCERGKLQPPRKAAASATVSVQVTDANDPPAFHPQSFIVNKEEGARPGTLLGTFNAMDPDSQIRYELVHDPANWVSVDKNSGVVITVEPIDRESPHVNNSFYVIIIHAVDDGFPPQTATGTLMLFLSDINDNVPTLRPRSRYMEVCESAVHEPLHIEAEDPDLEPFSDPFTFELDNTWGNAEDTWKLGRNWGQSVELLTLRSLPRGNYLVPLFIGDKQGLSQKQTVHVRICPCASGLTCVELADAEVGLHVGALFPVCAAFVALAVALLFLLRCYFVLEPKRHGCSVSNDEGHQTLVMYNAESKGTSAQTWSDVEGQRPALLICTAAAGPTQGVKDLEEVPPSAASQSAQARCALGSWGYGKPFEPRSVKNIHSTPAYPDATMHRQLLAPVEGRMAETLNQKLHVANVLEDDPGYLPHVYSEEGECGGAPSLSSLASLEQELQPDLLDSLGSKATPFEEIYSESGVPS
For the molecule B1, in test [4], the binding entry was “binds”.
